The source of these data is patent publication US20130149236A1 (MacroGenics, published 2013).

Test [1] concerns the target T1, human B7-H3 (form not stated) (human) (UniProt Q5ZPR3).
T1 sequence (looked up): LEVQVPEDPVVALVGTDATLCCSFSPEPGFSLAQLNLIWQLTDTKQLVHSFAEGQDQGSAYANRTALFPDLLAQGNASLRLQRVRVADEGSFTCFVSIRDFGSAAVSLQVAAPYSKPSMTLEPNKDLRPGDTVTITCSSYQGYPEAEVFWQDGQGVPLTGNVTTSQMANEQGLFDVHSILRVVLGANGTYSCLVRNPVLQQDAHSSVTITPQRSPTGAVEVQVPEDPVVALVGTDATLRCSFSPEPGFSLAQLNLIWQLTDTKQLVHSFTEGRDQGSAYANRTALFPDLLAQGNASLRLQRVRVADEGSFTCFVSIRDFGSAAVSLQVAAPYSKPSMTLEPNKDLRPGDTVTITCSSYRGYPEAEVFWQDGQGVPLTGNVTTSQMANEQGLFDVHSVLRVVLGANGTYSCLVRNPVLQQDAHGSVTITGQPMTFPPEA
The test can be described thus: summary of panel.

Test [2] has as its target T1, human B7-H3 (form not stated) (human). The test can be described thus: BIACORE grade.
Test [3] has the same target. In words: BIACORE analysis grade.
For test [4] the target is unchanged. The test can be described thus: Binding BIACORE grade. On the technique in general: Surface plasmon resonance follows binding to a sensor surface in real time, without labels.
The target is the same in test [5]. In words: summary of activities.
Test [6] shares this target. The test can be described thus: relative binding to human B7-H3 (FIG. 12).
Test [7] has the same target. The test can be described thus: relative binding to human B7-H3 (FIG. 13).

No constants are given. Whether binding was seen depends on the method and setting. Some binding calls cover weakened binding; strength is not graded here.

B1: BRCA84D (antibody, IgG1, V domains shown)
VH: DVQLVESGGGLVQPGGSRKLSCAASGFTFSSFGMHWVRQAPEKGLEWVAYISSDSSAIYYADTVKGRFTISRDNPKNTLFLQMTSLRSEDTAMYYCGRGRENIYYGSRLDYWGQGTTLTVSS
VL: DIAMTQSQKFMSTSVGDRVSVTCKASQNVDTNVAWYQQKPGQSPKALIYSASYRYSGVPDRFTGSGSGTDFTLTINNVQSEDLAEYFCQQYNNYPFTFGSGTKLEIK
notes: murine mAb, IgG1/k; fluorescein-labeled in the FACS MFI columns
Consider B1, for which the binding entry in test [1], in test [2], in test [3], in test [4] and in test [5] was “binds” in each case.

B2: antibody containing hBRCA84D-5VL and chimeric BRCA84D-HC (antibody, V domains shown)
VH: B1 VH
VL: DIQLTQSPSFLSASVGDRVTITCKASQNVDTNVAWYQQKPGQAPKALIYSASYRYSGVPSRFSGSGSGTDFTLTISSLQPEDFATYYCQQYNNYPFTFGQGTKLEIK
As for B2, the binding result in test [6] is “binds”.

B3: PRCA157 (antibody, IgG1, V domains shown)
VH: EVQQVESGGDLVKPGGSLKLSCAASGFTFSSYGMSWVRQTPDKRLEWVATINSGGSNTYYPDSLKGRFTISRDNAKNTLYLQMRSLKSEDTAMYYCARHDGGAMDYWGQGTSVTVSS
VL: DIQMTQSPASLSVSVGETVTITCRASESIYSYLAWYQQKQGKSPQLLVYNTKTLPEGVPSRFSGSGSGTQFSLKINSLQPEDFGRYYCQHHYGTPPWTFGGGTNLEIK
notes: murine mAb, IgG1/k
For the molecule B3, the binding result in test [1] and in test [2] was “binds” in each case.

B4: BRCA69D (antibody, IgG1, V domains shown)
VH: QVQLQQSGAELARPGASVKLSCKASGYTFTSYWMQWVKQRPGQGLEWIGTIYPGDGDTRYTQKFKGKATLTADKSSSTAYMQLSSLASEDSAVYYCARRGIPRLWYFDVWGAGTTVTVSS
VL: DIQMTQTTSSLSASLGDRVTISCRASQDISNYLNWYQQKPDGTVKLLIYYTSRLHSGVPSRFSGSGSGTDYSLTIDNLEQEDIATYFCQQGNTLPPTFGGGTKLEIK
As for B4, the binding entry in test [1], in test [2], in test [3], in test [4] and in test [5] was “binds” in each case.

B5: antibody containing hBRCA84D-5VL and hBRCA84D-2VH (antibody, V domains shown)
VH: EVQLVESGGGLVQPGGSLRLSCAASGFTFSSFGMHWVRQAPGKGLEWVAYISSDSSAIYYADTVKGRFTISRDNAKNSLYLQMNSLRDEDTAVYYCGRGRENIYYGSRLDYWGQGTTVTVSS
VL: B2 VL
Turning to B5, in test [7], the binding entry was “binds”.
